No constants are given. Whether binding was seen depends on the method and setting. In cells and extracts the contact can be indirect. A yes stands for co-enrichment or nearness to the bait. Other partners may have been found.
Target: HA-V1b2 (mouse) (UniProt P62814)
Test: affinity purification with mass spectrometry

Amino acid sequences for entries named in this document (tags omitted).
UniProt P62814: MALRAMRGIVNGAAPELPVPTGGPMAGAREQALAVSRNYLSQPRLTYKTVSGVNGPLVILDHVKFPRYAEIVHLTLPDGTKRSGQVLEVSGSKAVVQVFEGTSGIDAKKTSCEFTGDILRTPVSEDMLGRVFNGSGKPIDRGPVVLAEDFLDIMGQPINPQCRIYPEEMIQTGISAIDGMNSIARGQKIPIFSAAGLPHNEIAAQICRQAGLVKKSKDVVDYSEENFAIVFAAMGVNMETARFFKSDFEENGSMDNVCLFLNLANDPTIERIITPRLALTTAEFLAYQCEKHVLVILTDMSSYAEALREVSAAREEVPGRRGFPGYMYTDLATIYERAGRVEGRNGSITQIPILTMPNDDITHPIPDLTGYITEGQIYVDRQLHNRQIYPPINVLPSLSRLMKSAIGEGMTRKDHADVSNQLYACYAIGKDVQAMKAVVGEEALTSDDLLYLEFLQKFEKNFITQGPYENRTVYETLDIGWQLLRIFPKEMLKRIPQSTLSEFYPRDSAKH
UniProt Q3TDK6: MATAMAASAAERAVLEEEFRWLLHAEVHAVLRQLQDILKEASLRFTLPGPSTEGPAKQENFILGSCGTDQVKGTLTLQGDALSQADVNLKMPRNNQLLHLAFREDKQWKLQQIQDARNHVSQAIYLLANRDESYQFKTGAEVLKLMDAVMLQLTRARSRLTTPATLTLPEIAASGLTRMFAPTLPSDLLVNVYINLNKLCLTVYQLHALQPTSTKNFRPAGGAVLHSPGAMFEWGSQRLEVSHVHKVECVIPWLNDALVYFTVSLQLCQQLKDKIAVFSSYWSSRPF
UniProt Q6PNC0: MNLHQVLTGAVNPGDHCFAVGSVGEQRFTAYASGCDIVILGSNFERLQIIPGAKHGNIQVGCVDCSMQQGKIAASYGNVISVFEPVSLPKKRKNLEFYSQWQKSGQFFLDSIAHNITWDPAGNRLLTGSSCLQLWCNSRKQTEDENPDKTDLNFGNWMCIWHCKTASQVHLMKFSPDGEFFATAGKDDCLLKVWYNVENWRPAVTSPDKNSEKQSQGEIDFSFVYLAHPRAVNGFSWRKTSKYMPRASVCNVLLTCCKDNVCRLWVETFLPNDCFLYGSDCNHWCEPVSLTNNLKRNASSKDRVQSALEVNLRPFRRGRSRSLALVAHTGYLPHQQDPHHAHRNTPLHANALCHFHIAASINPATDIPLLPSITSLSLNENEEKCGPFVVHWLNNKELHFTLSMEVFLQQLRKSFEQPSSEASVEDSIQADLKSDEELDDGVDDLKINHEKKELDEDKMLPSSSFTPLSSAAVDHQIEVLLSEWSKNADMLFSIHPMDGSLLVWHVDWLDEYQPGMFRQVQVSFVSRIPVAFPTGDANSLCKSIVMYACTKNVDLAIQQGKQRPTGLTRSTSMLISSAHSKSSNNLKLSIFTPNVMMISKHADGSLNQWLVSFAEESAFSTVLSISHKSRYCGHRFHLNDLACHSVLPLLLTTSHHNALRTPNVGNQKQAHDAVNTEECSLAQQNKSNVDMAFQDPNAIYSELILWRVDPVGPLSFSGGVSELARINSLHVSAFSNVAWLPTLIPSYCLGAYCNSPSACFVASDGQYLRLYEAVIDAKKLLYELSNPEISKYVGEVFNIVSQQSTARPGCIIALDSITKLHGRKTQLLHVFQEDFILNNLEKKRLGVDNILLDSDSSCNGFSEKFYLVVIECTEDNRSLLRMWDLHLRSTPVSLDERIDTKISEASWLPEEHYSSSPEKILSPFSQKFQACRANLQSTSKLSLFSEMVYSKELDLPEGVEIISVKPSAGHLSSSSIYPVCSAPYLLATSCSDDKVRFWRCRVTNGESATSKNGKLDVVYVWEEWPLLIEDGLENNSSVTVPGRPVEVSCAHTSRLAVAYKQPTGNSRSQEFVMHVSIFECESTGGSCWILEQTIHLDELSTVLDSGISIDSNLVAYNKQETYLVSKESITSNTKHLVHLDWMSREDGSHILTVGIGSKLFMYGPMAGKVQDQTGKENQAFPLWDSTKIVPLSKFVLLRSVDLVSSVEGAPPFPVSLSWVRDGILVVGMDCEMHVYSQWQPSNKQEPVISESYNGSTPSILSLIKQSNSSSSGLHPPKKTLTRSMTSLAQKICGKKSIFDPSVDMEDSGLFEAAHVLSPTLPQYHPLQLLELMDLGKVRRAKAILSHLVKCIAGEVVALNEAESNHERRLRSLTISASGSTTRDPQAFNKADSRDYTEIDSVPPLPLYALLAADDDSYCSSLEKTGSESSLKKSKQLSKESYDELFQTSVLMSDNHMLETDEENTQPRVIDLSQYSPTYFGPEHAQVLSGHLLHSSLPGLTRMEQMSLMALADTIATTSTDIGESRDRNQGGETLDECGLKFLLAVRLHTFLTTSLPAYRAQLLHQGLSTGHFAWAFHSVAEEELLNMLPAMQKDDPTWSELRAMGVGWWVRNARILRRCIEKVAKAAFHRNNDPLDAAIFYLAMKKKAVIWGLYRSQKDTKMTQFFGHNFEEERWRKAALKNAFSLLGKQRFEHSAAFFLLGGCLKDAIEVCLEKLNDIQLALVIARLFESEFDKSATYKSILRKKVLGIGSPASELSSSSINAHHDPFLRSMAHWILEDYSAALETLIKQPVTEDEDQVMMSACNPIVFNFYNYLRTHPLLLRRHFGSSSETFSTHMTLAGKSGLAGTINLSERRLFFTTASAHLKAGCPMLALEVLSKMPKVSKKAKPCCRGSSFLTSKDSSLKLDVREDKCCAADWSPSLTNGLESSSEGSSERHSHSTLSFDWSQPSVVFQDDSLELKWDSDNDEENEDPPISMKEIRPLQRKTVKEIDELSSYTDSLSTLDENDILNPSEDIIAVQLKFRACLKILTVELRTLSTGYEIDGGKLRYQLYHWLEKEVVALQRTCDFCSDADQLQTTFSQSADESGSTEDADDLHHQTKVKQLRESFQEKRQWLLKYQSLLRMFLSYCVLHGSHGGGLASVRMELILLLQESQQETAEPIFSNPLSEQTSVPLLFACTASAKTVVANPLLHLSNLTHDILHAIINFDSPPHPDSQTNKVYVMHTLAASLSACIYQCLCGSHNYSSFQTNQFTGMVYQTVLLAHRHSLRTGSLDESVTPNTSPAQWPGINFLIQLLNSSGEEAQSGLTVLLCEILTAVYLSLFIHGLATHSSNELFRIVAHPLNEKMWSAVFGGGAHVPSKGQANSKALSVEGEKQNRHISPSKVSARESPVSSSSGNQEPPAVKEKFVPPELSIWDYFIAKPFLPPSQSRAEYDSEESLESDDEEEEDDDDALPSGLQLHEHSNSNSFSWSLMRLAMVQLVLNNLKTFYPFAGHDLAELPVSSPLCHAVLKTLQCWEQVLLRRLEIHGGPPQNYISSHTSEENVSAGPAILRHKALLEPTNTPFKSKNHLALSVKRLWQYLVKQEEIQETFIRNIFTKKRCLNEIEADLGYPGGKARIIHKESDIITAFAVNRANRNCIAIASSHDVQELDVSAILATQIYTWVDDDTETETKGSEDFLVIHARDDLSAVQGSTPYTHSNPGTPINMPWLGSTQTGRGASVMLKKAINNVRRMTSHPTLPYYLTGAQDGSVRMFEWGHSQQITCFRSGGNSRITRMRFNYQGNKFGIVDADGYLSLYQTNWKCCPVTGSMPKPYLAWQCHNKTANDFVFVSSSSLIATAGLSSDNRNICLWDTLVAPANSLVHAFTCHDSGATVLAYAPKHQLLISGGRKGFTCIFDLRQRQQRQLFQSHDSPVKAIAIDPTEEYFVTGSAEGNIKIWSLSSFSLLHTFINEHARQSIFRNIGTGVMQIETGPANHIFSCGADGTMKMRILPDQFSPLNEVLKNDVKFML
UniProt Q920I9: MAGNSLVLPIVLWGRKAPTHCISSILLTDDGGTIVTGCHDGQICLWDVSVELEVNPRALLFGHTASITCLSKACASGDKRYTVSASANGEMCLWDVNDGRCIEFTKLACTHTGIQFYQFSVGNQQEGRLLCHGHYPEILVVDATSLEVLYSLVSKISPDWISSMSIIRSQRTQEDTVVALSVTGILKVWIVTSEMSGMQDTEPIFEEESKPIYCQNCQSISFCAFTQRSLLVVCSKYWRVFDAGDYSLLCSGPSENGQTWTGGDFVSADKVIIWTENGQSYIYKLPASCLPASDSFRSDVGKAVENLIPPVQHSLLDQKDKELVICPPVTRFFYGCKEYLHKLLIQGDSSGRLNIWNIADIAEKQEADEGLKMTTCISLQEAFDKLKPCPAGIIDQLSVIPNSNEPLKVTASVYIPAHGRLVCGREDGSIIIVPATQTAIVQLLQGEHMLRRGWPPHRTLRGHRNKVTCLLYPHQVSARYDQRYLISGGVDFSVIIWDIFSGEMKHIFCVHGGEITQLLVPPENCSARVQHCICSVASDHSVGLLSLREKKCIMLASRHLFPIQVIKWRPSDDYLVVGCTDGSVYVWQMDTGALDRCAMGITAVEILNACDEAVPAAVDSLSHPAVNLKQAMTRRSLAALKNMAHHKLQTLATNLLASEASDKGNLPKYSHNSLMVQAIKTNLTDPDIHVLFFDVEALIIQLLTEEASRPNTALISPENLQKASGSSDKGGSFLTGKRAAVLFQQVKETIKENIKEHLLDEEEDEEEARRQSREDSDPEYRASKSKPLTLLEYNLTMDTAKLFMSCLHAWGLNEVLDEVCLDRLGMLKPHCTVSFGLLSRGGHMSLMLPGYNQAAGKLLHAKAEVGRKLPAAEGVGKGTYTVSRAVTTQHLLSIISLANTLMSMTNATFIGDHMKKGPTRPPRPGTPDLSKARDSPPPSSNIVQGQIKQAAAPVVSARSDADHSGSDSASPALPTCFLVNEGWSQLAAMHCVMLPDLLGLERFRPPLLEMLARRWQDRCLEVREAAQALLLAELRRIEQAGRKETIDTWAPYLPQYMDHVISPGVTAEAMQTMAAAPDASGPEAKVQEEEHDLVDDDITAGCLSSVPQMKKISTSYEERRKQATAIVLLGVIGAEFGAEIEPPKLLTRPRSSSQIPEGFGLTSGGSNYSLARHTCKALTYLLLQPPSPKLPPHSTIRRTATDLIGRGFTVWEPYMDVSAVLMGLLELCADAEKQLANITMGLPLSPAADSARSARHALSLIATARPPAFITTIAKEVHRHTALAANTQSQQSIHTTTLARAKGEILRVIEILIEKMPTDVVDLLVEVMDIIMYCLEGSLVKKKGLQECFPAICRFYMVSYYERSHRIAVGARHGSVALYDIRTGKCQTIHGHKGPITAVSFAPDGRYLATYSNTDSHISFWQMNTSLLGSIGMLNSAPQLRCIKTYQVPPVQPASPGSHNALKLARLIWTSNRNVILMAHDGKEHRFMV

| Substance | binding |
| --- | --- |
| Rogdi (from UniProt Q3TDK6 1-287) | binds |
| Dmxl1 (from UniProt Q6PNC0 1-3013) | binds |
| Wdr7 (from UniProt Q920I9 1-1489) | binds |
